In article doi:10.1101/2024.10.18.619078:

Molecular target: T1, GST-IBR3 (Arabidopsis thaliana) (UniProt Q8RWZ3)
T1 sequence: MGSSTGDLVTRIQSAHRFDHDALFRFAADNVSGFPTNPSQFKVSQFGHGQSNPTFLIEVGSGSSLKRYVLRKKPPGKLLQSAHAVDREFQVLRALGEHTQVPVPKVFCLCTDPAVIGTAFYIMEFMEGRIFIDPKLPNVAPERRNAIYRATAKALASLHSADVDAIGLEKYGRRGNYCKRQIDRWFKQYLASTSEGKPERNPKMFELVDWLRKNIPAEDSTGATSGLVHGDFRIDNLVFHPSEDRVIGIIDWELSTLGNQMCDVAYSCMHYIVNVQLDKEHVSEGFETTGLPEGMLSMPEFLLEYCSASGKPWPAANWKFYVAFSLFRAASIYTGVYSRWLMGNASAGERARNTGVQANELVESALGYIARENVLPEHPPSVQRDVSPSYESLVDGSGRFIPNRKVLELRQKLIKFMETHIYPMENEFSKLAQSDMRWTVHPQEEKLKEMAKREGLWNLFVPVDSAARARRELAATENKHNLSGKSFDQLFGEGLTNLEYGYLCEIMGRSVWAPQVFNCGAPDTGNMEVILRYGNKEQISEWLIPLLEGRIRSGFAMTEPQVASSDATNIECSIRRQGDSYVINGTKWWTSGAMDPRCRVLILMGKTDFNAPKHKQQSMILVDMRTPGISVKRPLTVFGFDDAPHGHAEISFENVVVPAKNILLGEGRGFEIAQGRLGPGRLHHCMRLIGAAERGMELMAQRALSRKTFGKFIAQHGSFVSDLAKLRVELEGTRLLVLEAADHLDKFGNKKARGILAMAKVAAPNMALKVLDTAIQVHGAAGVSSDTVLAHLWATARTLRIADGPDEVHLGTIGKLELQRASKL
Test: pull-down

Row | Substance | binding
1 | 12xHis-LIFERING C392R (Arabidopsis thaliana) (enzyme) | binds
2 | 12xHis-LIFERING, wild-type (Cys392) (Arabidopsis thaliana) (enzyme) | binds

No constants are given. Whether binding was seen depends on the method and setting. Binding seen in cells or lysates may run through a third protein. Binding can be weak; no strength is given. Where a sequence is shown, tags or fusion partners need not be part of it.
